# Assay results published in paper PMC12040169 (PLOS Biology, 2025).
# Some of the results follow.
# Test system: T1, CTL2-GFP (C. trachomatis L2/434/Bu, GFP-expressing)
# T1 construct: L2/434/Bu, GFP-expressing
# Design: species or system HeLa; Intracellular C. trachomatis growth in HeLa cells, bulk GFP fluorescence relative to DMSO
# Conditions: bulk GFP, single well; 28.5 h, 10 µM; inhibitor
row,SMILES,% of control remaining [%]
1,CC(=O)c1ccc(C(=O)N2CCC3(CC2)CC(=O)c2ccc4ccccc4c2O3)cc1 [CBK156458],128.827
2,CN(C)CCN(C)Cc1ccc2ccc3cccc4ccc1c2c34 [CBK261860],120.616
3,COc1cc(C(=O)N2CCN(C(=O)CC(C)C)CC2)cc(OC)c1OC [CBK003604],100
4,FC(F)(F)c1ccnc(OCCN2CCOCC2)c1 [CBK113286],118.875
5,CC(=O)c1sc(NC(=O)c2ccc(Br)o2)nc1C [CBK057948],166.803
6,COc1ccc(C2(C(=O)NCc3ccc4c(c3)OCO4)CC2)cc1 [CBK149829],89.7882
7,O=C(O)c1ccc(C(=O)Nc2cccc(NC(=O)C3CCCO3)c2)cc1 (stereo not drawn) [CBK268613],119.042
8,CSc1nc(NC(=O)c2ccoc2)cc(N2CCNCC2)n1 [CBK050314T],124.087
9,COc1ccc(-c2cc(C(F)(F)F)nc(SCC(=O)N(C)c3ccccc3)n2)cc1OC [CBK267628],113.13
10,O=S(=O)(Cc1ccc(Br)cc1F)c1ccccn1 [CBK019368],99.0258
11,COc1ccc2nc(C)c(CCC(=O)O)c(O)c2c1 [CBK286955],110.774
12,O=C(c1cc2ccccc2[nH]1)N1CCN(Cc2ccccc2)CC1 [CBK200172],71.0506
13,O=S(=O)(c1c(Cl)cccc1Cl)n1ccc2c(N3CCNCC3)nccc21 [CBK059060C],96.6051
14,C=CCN1CCCC[C@H]2CN(S(=O)(=O)c3cccc(F)c3)C[C@H]21 [CBK285500],95.9392
15,CC1(CC(=O)N2CCCCCC2)SC(NC2CCCCCC2)=NC1=O (stereo not drawn) [CBK074269],83.1285
16,O=c1[nH]nc2cc(NCc3ccc(Cl)cc3)ncn12 [CBK288479],88.3429
17,FC(F)(F)c1ccc(CN2CCCN(c3cc(OC4CCCCC4)ncn3)CC2)cc1 [CBK083277T],90.2742
18,CN(C)CCN(C)c1nc(-c2ccc3[nH]ccc3c2)cn2ccnc12 [CBK066276],115.452
19,O=[N+]([O-])c1ccc(Cl)c(C2N(Cc3ccccc3)CCN2Cc2ccccc2)c1 [CBK261601],122.701
20,CCNS(=O)(=O)c1ccc(NC(=O)c2cc(-c3ccccn3)nc3c(C)c(C)ccc23)cc1 [CBK267733],100.257
21,O=C(O)[C@H](Cc1ccccc1)Nc1ncnc2[nH]cnc12 [CBK287090],125.681
22,O=C(CCn1c(-c2cccnc2)cc2cccnc21)NC1CC1 [CBK282622],127.722
23,O=S(=O)(NCC(Sc1ccc(F)cc1)c1ccccc1)c1ccc(Cl)cc1 (stereo not drawn) [CBK266306],209.995
24,FC(F)(F)c1cccc(OCCCc2ccncc2)n1 [CBK115795],187.636
25,NC(=O)c1c(NC(=O)CSc2ccc(Cl)cc2)sc2c1CCCC2 [CBK263101],100
26,COC(=O)CCC(=O)N1CCCC2(CCN(C(=O)c3ccoc3)C2)C1 (stereo not drawn) [CBK160988],145.111

# As a working copy, part of the list above:
row,SMILES,% of control remaining [%]
5,CC(=O)c1sc(NC(=O)c2ccc(Br)o2)nc1C [CBK057948],166.803
6,COc1ccc(C2(C(=O)NCc3ccc4c(c3)OCO4)CC2)cc1 [CBK149829],89.7882

# (more compounds)

row,SMILES,% of control remaining [%]
1,Fc1cccc2sc(Nc3nc(-c4cccs4)cs3)nc12 [CBK287476],140.178
2,Cc1ccc(C(=O)NCCCNC(=O)c2ccncc2)cc1 [CBK269477],142.328
3,CCNc1nnc(-c2c(Cl)c(C)nn2C)s1 [CBK288014],132.261
4,COCCSc1nc2c(c(=O)[nH]c(=O)n2C)n1CCCc1ccccc1 [CBK140504],127.303
5,Cc1cccc(=O)n1CCCNc1cc(C2CCOC2)ncn1 (stereo not drawn) [CBK306992],145.633
6,O=C1COc2ccccc2CCCCC2(CCCN(C(=O)CN3CCCC3=O)C2)CN1 (stereo not drawn) [CBK291992],110.166
7,COc1ccc(C(=O)C2=C(O)C(=O)N(CCCN(C)C)C2c2ccc(Cl)c(Cl)c2)cc1 (stereo not drawn) [CBK264723],113.611
8,O=C(O)c1cc(-c2cc(Cl)ccc2Cl)nc2ccccc12 [CBK265391],100
9,CCN(c1cc(N2CCCNCC2)ccc1NS(=O)(=O)c1cccc2cccnc12)S(C)(=O)=O [CBK000014C],127.369
10,O=C(N/N=C/c1c(F)cccc1Cl)c1ccccc1O [CBK261815],87.693
11,Cc1sc2nc(SCc3nc4ccccc4[nH]3)n(-c3ccc(Cl)c(Cl)c3)c(=O)c2c1C [CBK264594],115.816
12,Nc1c(-c2ccsc2)cnc2ncccc12 [CBK083707],134.054
13,Cc1cc(C#N)ccc1OCC(=O)NC1CCS(=O)(=O)C1 (stereo not drawn) [CBK305816],115.746
14,O=C(O)CC1SC(=O)N(c2ccccc2)C1=O (stereo not drawn) [CBK287085],124.307
15,O=[N+]([O-])c1ccc(CN2CCN(c3nccnc3OCC3COc4ccccc4O3)CC2)cc1 (stereo not drawn) [CBK082791T],85.6062
16,CCOc1ccc(NC(=O)N(C)Cc2noc(CC(C)C)n2)cc1C#N [CBK307089],149.187
17,O=C1NCC(C(=O)N2CCC3(CC2)CC(=O)c2cc(Br)ccc2O3)N1 (stereo not drawn) [CBK156475],125.284
18,Cn1nccc1CN1CCC(Oc2ccccc2F)CC1 [CBK281618],124.121
19,COc1ccc(-n2ncc3c2CC(C)(C)CC3NC(=O)C2CC2)cc1 (stereo not drawn) [CBK282337],105.247
20,Cn1c(SCC(=O)c2ccccc2)nc2ccccc2c1=O [CBK055260],100
21,N#Cc1cn(S(=O)(=O)c2cccc(C(F)(F)F)c2)nc1N [CBK067225],72.9109
22,Cc1ccc(S(=O)(=O)N(C)c2ccnc(N3CCNCC3)n2)cc1 [CBK200009],97.3908
23,Cc1cnn(CC(=O)N2CCCC(COc3ccccc3F)C2)c1 (stereo not drawn) [CBK281999],120.797
24,Cn1ccnc1C1(O)CC2CCC(C1)N2C(=O)C1CCCC1 (stereo not drawn) [CBK284052],135.909
25,O=c1[nH]c2ncc(-c3cccc4ncccc34)nc2n1C1CCCCC1 [CBK064861],90.9373
